In paper PMC11476691, “ATM1, an essential conserved transporter in Apicomplexa, bridges mitochondrial and cytosolic [Fe-S] biogenesis” (PLOS Pathogens, 2024):
Results are given in words; binding and its absence hold for the method and conditions named. Binding seen in cells or lysates may run through a third protein. Binding can be weak; no strength is given. One block for each binder: values may come before it.

Sequences of proteins named here, by UniProt entry; tags and fusion partners are left off. A change or cut given only in a name is not applied to a line headed by its entry.
UniProt Q8IDH9: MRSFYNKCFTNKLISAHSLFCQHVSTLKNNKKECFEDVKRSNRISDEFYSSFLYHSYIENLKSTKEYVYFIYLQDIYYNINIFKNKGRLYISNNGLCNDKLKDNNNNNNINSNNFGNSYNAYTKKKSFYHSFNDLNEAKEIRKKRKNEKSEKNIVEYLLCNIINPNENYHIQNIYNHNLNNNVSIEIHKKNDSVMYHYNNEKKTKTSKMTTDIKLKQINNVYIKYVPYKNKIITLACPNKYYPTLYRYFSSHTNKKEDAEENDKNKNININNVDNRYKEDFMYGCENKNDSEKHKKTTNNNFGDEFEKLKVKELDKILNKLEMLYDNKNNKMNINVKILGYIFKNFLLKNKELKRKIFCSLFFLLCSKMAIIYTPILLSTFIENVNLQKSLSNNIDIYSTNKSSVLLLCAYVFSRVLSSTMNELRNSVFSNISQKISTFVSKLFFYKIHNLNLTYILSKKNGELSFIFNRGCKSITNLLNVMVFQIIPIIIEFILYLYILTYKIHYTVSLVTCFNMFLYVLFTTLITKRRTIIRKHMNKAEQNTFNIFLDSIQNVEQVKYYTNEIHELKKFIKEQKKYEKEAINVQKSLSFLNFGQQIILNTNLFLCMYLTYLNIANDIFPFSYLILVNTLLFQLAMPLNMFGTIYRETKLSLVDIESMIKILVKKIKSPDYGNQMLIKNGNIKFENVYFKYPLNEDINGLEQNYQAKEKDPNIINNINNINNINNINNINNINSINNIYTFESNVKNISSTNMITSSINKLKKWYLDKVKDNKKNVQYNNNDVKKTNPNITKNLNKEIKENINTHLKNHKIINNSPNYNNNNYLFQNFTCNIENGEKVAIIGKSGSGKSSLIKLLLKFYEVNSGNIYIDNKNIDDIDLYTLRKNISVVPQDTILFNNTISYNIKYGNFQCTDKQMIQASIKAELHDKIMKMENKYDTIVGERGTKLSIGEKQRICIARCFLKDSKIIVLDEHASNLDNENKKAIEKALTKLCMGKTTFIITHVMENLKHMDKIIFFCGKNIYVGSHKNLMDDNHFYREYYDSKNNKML

Biological target: PfATM1-CTD (P. falciparum) (UniProt Q8IDH9)
Experiment: pull-down; 6XHis-tagged bait bound to Ni-NTA beads; P. falciparum lysate; western blot of the eluates; only the target purified

- binding: binds
B1: PfIscU (protein, UniProt Q8IKT4 1-162)
chain: MKSKILCNLFKGKSCICLYTNCLNENNVNKCYYNLVRNYSDHVKDHFNKPRNVGSFDKNEKNIGTSIVGKASCGDVIKLQLKIENDVIKDARFMAFGCGSAIASSSYATELIKGKTIDEALKIKNNDIASHLSLPPVKIHCSLLAEDAIKHAIKNYREKVLT

- binding: binds
B2: PfIscA2 (protein, UniProt O97297 1-404)
chain: MFNNFLNMYMCTLAEKLCKFKKNNFNNIHRNNNFYRDNNFYRDNNFYRDNNFYRDNNFYRDNNLYTNNNLYRDNNFYRDNNFYRDNNFYRDNNLYTNNNLYRDNNLYTNNNLYRDNNFYNITLRKFHFIQTISNNNFNFEIIKKYGDVINKIMFIHTQKKNKQERFMFNNKKYIKRKEYILNDLNEFISIIPHPEINNEITNNSNQKKNKDNKQNVLSTNQQIITNYNLNHKENVTSNLNFNNKEEDEKKLDKLLKKRNIKKRDIVTITEEAKEELKKIISINKKENNNNYNNMNTICSDNHNDMNTICNDKNILKLFFITKGCNGLTHSFNFISKKDIHKEDEIIYDDQNNILLVIDKNCILYVINTTLDYYKDDLTEKFIFKNPNITSICPCGTSFHFSKKK
